In PubChem BioAssay AID540256 (National Center for Advancing Translational Sciences (NCATS), 2011):
The whole screen tested about 300,000 compounds, of which about 3,700 (1.2%) were called active. Inconclusive means that the source gave no clear call. Such entries were picked first, then a sample of the others. The call rests on the fitted dose curve; tested in HEK293 cells. A potency beside an inconclusive call is a rough fit, not a confirmed value.

assay: qHTS for Inhibitors of binding or entry into cells for Lassa Virus; conditions: Lassa virus pseudotype entry inhibition, cell reporter; activity change, negative = inhibition: at 37.9 µM (top of the series) unless noted; further: nearly all actives have a fitted effect of over 50% in size
On the % scale 0 is the no-effect control and ±100 the full control effect; potency means the concentration at half of the fitted maximal effect.

| Structure (SMILES) | Potency | activity change, negative = inhibition |
| --- | --- | --- |
| CCOc1ccc(NC(=O)CN2CCc3ccccc3C2)cc1 | inconclusive: 12.6 µM [inhibitor, partial curve, poor fit] |  |
| O=c1oc2ccccc2nc1/C=C(O)/C=C/c1ccc(F)cc1 |  | inactive: 9.41% |
| CCn1c(C)c(C(=O)NCCc2ccccc2)c2cc(OC)ccc21 | inconclusive: 35.5 µM [inhibitor, single point] |  |
| Cc1ccc(C(C)C)c(OCC(=O)Nc2ccccc2N2CCN(C)CC2)c1 | active: 10 µM |  |
| C=CCN(c1ccc(C(=O)N(CC)CC)cc1)S(C)(=O)=O | inconclusive: 13 µM [activator, partial curve, poor fit] |  |
| O=C(CCN1CCc2ccccc2C(O)(c2ccccc2)C1)c1ccc2c(c1)OCCO2 (stereo not drawn) | inconclusive: 11.2 µM [inhibitor, single point] |  |
| CC1(C)Cc2c(C#N)c(SCc3ccccc3)nc(N3CCOCC3)c2CO1 | inconclusive: 12.6 µM [inhibitor, partial curve, poor fit] |  |
| Cc1cc(C)c(/C=C/c2onc(C)c2S(=O)(=O)N2CCC(C(=O)N(C)Cc3ccccc3)CC2)c(C)c1 | inconclusive: 35.5 µM [inhibitor, single point] |  |
| COc1ccc(C2C(C(C)=O)=C(O)C(=O)N2CCCn2ccnc2)cc1OC (stereo not drawn) | inconclusive: 0.316 µM [inhibitor, partial curve, poor fit] |  |
| CCc1cccc(C)c1NC(=O)Cn1cc2c(n1)CCCC2 |  | inactive: -18.9% [at 46.1 µM] |
| Cc1cccc(NC(=S)NNc2ncc(C(F)(F)F)cc2Cl)c1 | active: 18.4 µM |  |
| CC(=NCCCNC1CCCCC1)C1=C(O)CC(C)(C)CC1=O | inconclusive: 35.5 µM [activator, single point] |  |
| COc1ccccc1NC(=O)NCC(=O)Nc1c(C)cccc1C | inconclusive: 20 µM [activator, single point] |  |
| CCCCOCCCNCc1cccn1CCN1CCOCC1 | inconclusive: 0.126 µM [inhibitor, full curve, poor fit] |  |
| Cc1ccc(NC(=O)c2sccc2C)cc1[N+](=O)[O-] | inconclusive: 11.6 µM [activator, partial curve, poor fit] |  |
| COc1ccccc1N1CCN(C(=O)c2cc(=O)c3cc(C)cc(C)c3o2)CC1 | inconclusive: 6.31 µM [inhibitor, partial curve, poor fit] |  |
| CC(C)(CO)Nc1nc(N2CCCC2)nc(N2CCCC2)n1 |  | inactive: -0.46% |
| O=C(CCCN1C(=O)c2ccccc2C1=O)NCc1ccco1 |  | inactive: 1.07% |
| NC(=O)c1cc(-c2csc(-c3cccnc3)n2)ccc1O |  | inactive: 3.8% [at 46.1 µM] |
| Cc1cc(C)c(C)c(S(=O)(=O)N2CCN(CC(=O)c3c(N)n(Cc4ccccc4)c(=O)n(C)c3=O)CC2)c1C | inconclusive: 20.6 µM [inhibitor, single point] |  |
| COCCCn1cc(C(=O)c2cc(OC)ccc2OCC(=O)N2CCCCC2C)cc(C#N)c1=O (stereo not drawn) |  | inactive: -10.5% |
| CCOC(=O)c1ccc(S(=O)(=O)N2CCN(C(=O)CSc3nc4ccccc4o3)CC2)cc1 | inconclusive: 2.51 µM [inhibitor, partial curve, poor fit] |  |
| CC1=C(C(=O)Nc2ccccn2)C(c2ccc(Cl)cc2)NC(=S)N1 (stereo not drawn) | inconclusive: 17.8 µM [activator, single point] |  |
| COc1ccc(CN2CCCC(CO)(Cc3cccc(Cl)c3)C2)cc1OC (stereo not drawn) |  | inactive: -41.6% [at 46.1 µM] |

| Structure (SMILES) | Potency | activity change, negative = inhibition |
| --- | --- | --- |
| Cc1ccc(SCC(=O)N/N=C/c2ccco2)cc1 | inconclusive: 11.2 µM [inhibitor, single point] |  |
| Cn1ncc(Cl)c1C(=O)Nc1cccc(Cl)c1 | inconclusive: 0.651 µM [activator, single point] |  |
| CCOC(=O)c1c(C)nc(-c2ccccc2)nc1NC(=O)CC |  | inactive: 1.42% |
| CCNc1nc(Oc2ccc(C(=O)OC)cc2)nc(N(C)C)n1 |  | inactive: -0.83% |
| O=C1c2cccnc2C(=O)N1CO |  | inactive: -0.0488% |
| CCOc1ccc(CCNC(=O)c2cc(C)on2)cc1OCC |  | inactive: 16.7% [at 46.1 µM] |
| OC(c1nc2ccccc2[nH]1)C(O)c1nc2ccccc2[nH]1 (stereo not drawn) |  | inactive: 0.885% |
| CCN1C(C(=O)c2ccccc2)=C(OC(=O)c2ccc(OC)cc2)c2ccccc2S1(=O)=O |  | inactive: -19.9% [at 46.1 µM] |
| CN(C)/C=C/C(=O)c1cnc(-c2ccccn2)s1 |  | inactive: -4.88% |
| COc1ccc(NC(=O)c2cc3c(s2)CCC3)cc1S(=O)(=O)N1CCOCC1 | inconclusive: 25.9 µM [inhibitor, single point] |  |
| CCNC(=S)N(CCc1ccc(S(N)(=O)=O)cc1)C1CC(=O)N(c2ccccc2)C1=O (stereo not drawn) | inconclusive: 15.8 µM [inhibitor, single point] |  |
| C=CCOC(=O)Nc1c(C(=O)OC)[nH]c2ccccc12 |  | inactive: -5.53% |
| COc1cc(Cl)ccc1OCc1cc(C(=O)N(C)C2CC(C)(C)NC(C)(C)C2)no1 | inconclusive: 6.31 µM [activator, partial curve, poor fit] |  |
| C=CCN=c1scc(-c2ccc(F)cc2)n1/N=C/c1ccccn1 | inconclusive: 2.51 µM [inhibitor, full curve, poor fit] |  |
| CC(C)CN(C(=O)COC(=O)c1ccc(Cl)nc1)c1c(N)n(Cc2ccccc2)c(=O)[nH]c1=O |  | inactive: -3.25% |
| CCOC(=O)c1c(NC(=O)COC(=O)Cc2n[nH]c(=O)c3ccccc23)sc(C(=O)N(C)C)c1C |  | inactive: 8.89% |
| NNC(=O)c1cc2c(N3CCC(Cc4ccccc4)CC3)ncnc2s1 | active: 10 µM |  |
| CCOC(=O)C1=C(C)N(C)C2(C)CC1c1ccccc1O2 (stereo not drawn) | inconclusive: 1.26 µM [activator, single point] |  |
| O=c1cc(-c2ccccc2)[nH]c2ccc(F)cc12 | inconclusive: 1.64 µM [inhibitor, full curve, poor fit] |  |
| CC(C)OCCCn1c(NN)nc2ccccc2c1=O |  | inactive: 2.05% |
| O=C(O)c1cc(NCc2cccs2)ccc1N1CCOCC1 |  | inactive: -11.4% |
| CC(=O)c1ccc(N2Cc3ccccc3C2)cc1 | inconclusive: 3.16 µM [inhibitor, full curve] |  |
| Fc1ccc2nc(C3CCN(Cc4nc(CC5CC5)no4)CC3)[nH]c2c1 |  | inactive: 10.8% [at 46.1 µM] |
| Cc1sc2nc(C3CC3)nc(N3CCN(C(=O)c4ccc(Cl)cc4)CC3)c2c1C | inconclusive: 11.2 µM [inhibitor, partial curve, poor fit] |  |

An excerpt of these results, with bars between the fields.
Structure (SMILES) | Potency | activity change, negative = inhibition
CCOC(=O)c1c(C)nc(-c2ccccc2)nc1NC(=O)CC |  | inactive: 1.42%
CCOc1ccc(CCNC(=O)c2cc(C)on2)cc1OCC |  | inactive: 16.7% [at 46.1 µM]
COc1cc(Cl)ccc1OCc1cc(C(=O)N(C)C2CC(C)(C)NC(C)(C)C2)no1 | inconclusive: 6.31 µM [activator, partial curve, poor fit] | 
